Values from PubChem BioAssay AID602196 (INSERM, 2012)
Screen: 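Knock-downs that protect lung cancer cells from cisplatin or sensitise them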. Cell system: human A549 lung cancer cells. Reagent: siRNA pair against human genes. Duration: 48 h transfection before cisplatin; time from cisplatin to read-out not stated. Conditions: cisplatin at a dose killing half of control-siRNA cells; exact dose and duration not given. Measured: 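Cisplatin cell death as a shift from the 50% death seen with control siRNA; siRNAs toxic or growth-blocking alone scored 0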. Scale: two-siRNA summed score (-2 to +2): higher = both siRNAs protect from cisplatin killing; -2 means both sensitise; mean protection from cisplatin (shift in death): higher = protection from cisplatin killing. Active means: 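Each siRNA scores 0 if harmful alone by LDH or WST-1, otherwise +1 if it reduces and -1 if it increases cisplatin killing; a gene is active when both siRNAs agree (sum +2 or -2)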. Calls: active = both siRNAs shift cisplatin killing the same way; inactive = no consistent shift, or siRNA harmful alone.
Shown is one part, drawn at random, of about 23,000 reagents tested. Of all reagents, 455 (2%) got an active call. 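Active includes both protection and sensitisation; some change values fall well beyond the stated -50 to +50 range.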 Further read-outs or replicates are left out here. Not given: the amount of reagent.

The opening 9 records, to show the layout:
no.	gene symbol	PubChem SID	two-siRNA summed score (-2 to +2)	mean protection from cisplatin (shift in death) (%)	Call
1	ZNF787	SID131511667	0	4.6	inactive
2	STK39	SID131523221	2	28.3	active
3	LOC389070	SID131514770	0	8.2	inactive
4	ALKBH7	SID131501071	-1	-12.6	inactive
5	ESPNL	SID131521963	1	15.6	inactive
6	KCNA6	SID131504189	0	-6.2	inactive
7	RASSF1	SID131502762	-1	7.9	inactive
8	ZC3HC1	SID131519399	1	5.3	inactive
9	LOC387932	SID131518326	0	18.4	inactive

Results, from the start:
no.	gene symbol	PubChem SID	two-siRNA summed score (-2 to +2)	mean protection from cisplatin (shift in death) (%)	Call
1	ZNF787	SID131511667	0	4.6	inactive
2	STK39	SID131523221	2	28.3	active
3	LOC389070	SID131514770	0	8.2	inactive
4	ALKBH7	SID131501071	-1	-12.6	inactive
5	ESPNL	SID131521963	1	15.6	inactive
6	KCNA6	SID131504189	0	-6.2	inactive
7	RASSF1	SID131502762	-1	7.9	inactive
8	ZC3HC1	SID131519399	1	5.3	inactive
9	LOC387932	SID131518326	0	18.4	inactive
10	CCDC158	SID131508327	0	0.9	inactive
11	TBATA	SID131511763	0	4.7	inactive
12	GCSAM	SID131517209	0	12.7	inactive
13	CUL1	SID131518910	1	-9.2	inactive
14	CRYGA	SID131522732	1	22.6	inactive
15	RFX3	SID131504671	0	-4.8	inactive
16	LOC387864	SID131510267	0	3.1	inactive
17	SBDS	SID131509124	0	1.8	inactive
18	DCAF12L1	SID131522098	1	16.3	inactive
19	TAS2R43	SID131509475	0	2.2	inactive
20	LOC440899	SID131508097	0	0.6	inactive
21	RASA4	SID131502016	-1	-5.9	inactive
22	KIRREL1	SID131505485	0	-3.1	inactive
23	LOC388255	SID131510702	0	3.5	inactive
24	LYRM4	SID131502665	-1	1.5	inactive
25	LOC389833	SID131501581	-1	-8.8	inactive
26	LRRFIP2	SID131515730	0	9.6	inactive
27	RIOX2	SID131504684	0	-4.8	inactive
28	PDE3B	SID131519699	1	7.1	inactive
29	PSD	SID131506691	0	-1.1	inactive
30	MAP3K14	SID131522903	1	36	inactive
31	LOC129870	SID131519255	1	4.2	inactive
32	GPR162	SID131514616	0	8	inactive
33	LAMTOR3	SID131522870	1	28	inactive
34	HMGN3	SID131501659	-1	-8.3	inactive
35	LOC285307	SID131521966	1	15.6	inactive
36	ASIC1	SID131518199	0	17.2	inactive
37	MSRB1	SID131504411	0	-5.5	inactive
38	MORC2	SID131521393	1	13.2	inactive
39	SCML1	SID131517839	0	15.1	inactive
40	BOD1L1	SID131511893	0	4.9	inactive
41	URB2	SID131519457	1	5.7	inactive
42	RRM2B	SID131512730	0	5.8	inactive
43	KRT36	SID131507012	0	-0.7	inactive
44	SAMHD1	SID131503767	0	-7.9	inactive
45	UBE2I	SID131518115	0	16.7	inactive
46	PRSS27	SID131504728	0	-4.6	inactive
47	LOC256223	SID131518307	0	18.1	inactive
48	COMMD7	SID131504328	0	-5.7	inactive
49	LRP5	SID131500700	-1	-17.5	inactive
50	KCNC3	SID131514768	0	8.2	inactive
51	AMHR2	SID131505372	0	-3.2	inactive
52	POTEH	SID131515231	0	8.9	inactive
53	CCDC12	SID131503670	0	-8.5	inactive
54	HOXB4	SID131516978	0	12.1	inactive
55	IFI30	SID131505299	0	-3.4	inactive
56	BAG1	SID131501595	-1	-8.7	inactive
57	LOC401131	SID131515384	0	9.1	inactive
58	QSOX1	SID131501017	-1	-13.3	inactive
59	MCPH1	SID131505847	0	-2.5	inactive
60	NFIA	SID131501476	-1	-9.5	inactive
61	HCLS1	SID131519271	1	4.3	inactive
62	CFB	SID131508455	0	1.1	inactive
63	CDIPT	SID131504544	0	-5.1	inactive
64	CCDC25	SID131502559	-1	-0.9	inactive
65	OR4C11	SID131502062	-1	-5.5	inactive
66	LOC389816	SID131509135	0	1.8	inactive
67	NDUFC1	SID131501039	-1	-13	inactive
68	DECR1	SID131510336	0	3.1	inactive
69	ZNF467	SID131505081	0	-3.8	inactive
70	LOC391459	SID131521731	1	14.6	inactive
71	ZNF470	SID131512786	0	5.9	inactive
72	NDUFV1	SID131500932	-1	-14	inactive
73	VPS13C	SID131506876	0	-0.9	inactive
74	VPS13C	SID131510968	0	3.8	inactive
